These are yes or no findings as the source states them, for the method shown. For some assays here: In cells and extracts the contact can be indirect. Some results given as binding are weak or reduced against the parent protein; the word gives no strength. For some assays here: Sequences can lack the tags named with a protein.

Amino acid sequences for entries named in this document (tags omitted).
UniProt Q9UNE7: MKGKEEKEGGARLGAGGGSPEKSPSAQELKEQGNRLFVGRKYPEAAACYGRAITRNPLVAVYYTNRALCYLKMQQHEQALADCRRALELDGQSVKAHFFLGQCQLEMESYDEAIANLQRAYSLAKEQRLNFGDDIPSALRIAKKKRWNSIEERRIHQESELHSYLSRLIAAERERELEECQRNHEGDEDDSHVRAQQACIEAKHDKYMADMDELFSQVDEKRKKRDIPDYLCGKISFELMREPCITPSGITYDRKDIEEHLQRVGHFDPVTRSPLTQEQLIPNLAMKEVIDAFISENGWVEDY
UniProt Q9WUD1: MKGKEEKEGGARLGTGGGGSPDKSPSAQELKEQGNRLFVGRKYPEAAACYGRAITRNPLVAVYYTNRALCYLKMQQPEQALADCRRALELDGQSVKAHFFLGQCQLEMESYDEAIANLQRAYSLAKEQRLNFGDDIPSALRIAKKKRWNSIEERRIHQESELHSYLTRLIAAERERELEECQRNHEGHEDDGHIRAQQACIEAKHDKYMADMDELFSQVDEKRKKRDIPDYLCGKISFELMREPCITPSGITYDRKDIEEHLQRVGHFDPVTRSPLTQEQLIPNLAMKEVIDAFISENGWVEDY
UniProt Q13263: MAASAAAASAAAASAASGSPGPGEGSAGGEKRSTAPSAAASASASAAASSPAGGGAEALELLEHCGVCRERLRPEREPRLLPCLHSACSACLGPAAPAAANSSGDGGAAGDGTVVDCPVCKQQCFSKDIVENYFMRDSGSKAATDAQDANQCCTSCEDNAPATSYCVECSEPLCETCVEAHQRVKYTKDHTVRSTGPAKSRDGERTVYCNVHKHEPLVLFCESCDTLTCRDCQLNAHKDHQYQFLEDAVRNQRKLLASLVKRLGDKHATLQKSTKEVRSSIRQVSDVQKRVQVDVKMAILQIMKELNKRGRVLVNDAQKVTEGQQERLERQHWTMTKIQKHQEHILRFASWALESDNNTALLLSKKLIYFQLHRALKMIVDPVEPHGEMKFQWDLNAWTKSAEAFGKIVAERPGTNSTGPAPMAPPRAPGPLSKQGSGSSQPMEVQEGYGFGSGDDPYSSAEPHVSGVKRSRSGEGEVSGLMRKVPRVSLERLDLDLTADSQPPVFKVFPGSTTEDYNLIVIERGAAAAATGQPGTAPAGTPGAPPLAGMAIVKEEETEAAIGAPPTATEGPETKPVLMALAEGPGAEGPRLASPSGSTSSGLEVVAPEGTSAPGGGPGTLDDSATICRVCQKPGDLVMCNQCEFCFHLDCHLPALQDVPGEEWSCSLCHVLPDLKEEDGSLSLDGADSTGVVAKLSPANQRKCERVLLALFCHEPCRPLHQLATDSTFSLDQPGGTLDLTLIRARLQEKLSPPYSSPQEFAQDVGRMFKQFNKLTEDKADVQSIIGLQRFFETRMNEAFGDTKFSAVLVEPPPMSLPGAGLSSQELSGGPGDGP

The target of assay [1] is T1, Smbit-TPIT (UniProt O60806).
T1 sequence: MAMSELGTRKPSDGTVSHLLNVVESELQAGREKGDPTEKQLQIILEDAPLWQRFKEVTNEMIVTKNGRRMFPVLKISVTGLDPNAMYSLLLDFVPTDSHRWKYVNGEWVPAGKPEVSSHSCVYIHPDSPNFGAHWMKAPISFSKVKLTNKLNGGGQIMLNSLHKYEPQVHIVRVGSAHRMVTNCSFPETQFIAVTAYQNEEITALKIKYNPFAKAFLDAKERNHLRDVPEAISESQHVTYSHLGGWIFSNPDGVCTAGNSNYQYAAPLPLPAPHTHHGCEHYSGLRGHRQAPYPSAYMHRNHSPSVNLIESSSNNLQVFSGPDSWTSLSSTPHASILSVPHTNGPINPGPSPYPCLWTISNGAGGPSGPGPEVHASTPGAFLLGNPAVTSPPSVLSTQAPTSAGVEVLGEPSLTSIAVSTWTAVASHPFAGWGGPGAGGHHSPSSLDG
The experiment in a line: split reporter; NanoBiT for drug screening; HEK-293T transfected with Smbit-TPIT and Lgbit-STUB1, 5000 cells per well in 384-well plates with furimazine; 1913 compounds at 1 uM, read at 15, 30, 60 and 120 min.

In assay [2] the target is T1, Smbit-TPIT. Kind of assay: split reporter; NanoBiT; HEK-293T transfected with LgBiT and SmBiT plasmids, lysed, luminescence of the supernatant with furimazine in 96-well plates.
Assay [3] has as its target T2, TPIT, endogenous in AtT-20 cells (mouse (endogenous in AtT-20)) (UniProt Q99ME7).
T2 sequence: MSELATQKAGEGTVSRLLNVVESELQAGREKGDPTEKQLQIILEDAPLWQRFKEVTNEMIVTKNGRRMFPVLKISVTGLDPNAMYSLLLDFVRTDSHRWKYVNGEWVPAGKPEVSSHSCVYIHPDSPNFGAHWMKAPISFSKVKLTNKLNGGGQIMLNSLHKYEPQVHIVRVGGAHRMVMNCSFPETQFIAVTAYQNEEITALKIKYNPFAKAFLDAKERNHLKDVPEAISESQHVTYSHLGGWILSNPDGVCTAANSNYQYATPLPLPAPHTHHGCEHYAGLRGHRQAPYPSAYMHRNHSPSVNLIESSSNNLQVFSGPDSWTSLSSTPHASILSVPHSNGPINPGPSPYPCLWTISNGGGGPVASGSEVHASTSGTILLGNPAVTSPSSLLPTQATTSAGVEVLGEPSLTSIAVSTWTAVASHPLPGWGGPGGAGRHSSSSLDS
Kind of assay: co-IP; endogenous Co-IP in AtT-20 and corticotropin cells; Triton X-100 lysis buffer, rProtein A/G beads, immunoblot. (Immunoblotting shows a protein as a band on a membrane.)

Assay [4] addresses T3, TPIT, endogenous in corticotropin cells (human (endogenous in primary corticotroph tumor cells)) (UniProt O60806).
T3 sequence: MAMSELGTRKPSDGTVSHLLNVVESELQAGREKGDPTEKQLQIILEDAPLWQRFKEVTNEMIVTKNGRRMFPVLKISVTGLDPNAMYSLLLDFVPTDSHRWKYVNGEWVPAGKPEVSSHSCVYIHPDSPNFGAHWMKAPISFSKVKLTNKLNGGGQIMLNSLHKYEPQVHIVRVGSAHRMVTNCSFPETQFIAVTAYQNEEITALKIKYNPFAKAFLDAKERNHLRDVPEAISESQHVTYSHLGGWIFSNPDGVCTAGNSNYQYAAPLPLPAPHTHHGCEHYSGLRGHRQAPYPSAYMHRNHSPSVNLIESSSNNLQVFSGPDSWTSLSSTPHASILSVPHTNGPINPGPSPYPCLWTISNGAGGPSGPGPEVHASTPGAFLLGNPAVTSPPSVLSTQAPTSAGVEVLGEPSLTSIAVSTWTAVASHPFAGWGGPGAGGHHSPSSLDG
Described as above.

Assay [5] has as its target T4, glutathione S-transferase (GST)-TPIT fusion protein (UniProt O60806).
T4 sequence: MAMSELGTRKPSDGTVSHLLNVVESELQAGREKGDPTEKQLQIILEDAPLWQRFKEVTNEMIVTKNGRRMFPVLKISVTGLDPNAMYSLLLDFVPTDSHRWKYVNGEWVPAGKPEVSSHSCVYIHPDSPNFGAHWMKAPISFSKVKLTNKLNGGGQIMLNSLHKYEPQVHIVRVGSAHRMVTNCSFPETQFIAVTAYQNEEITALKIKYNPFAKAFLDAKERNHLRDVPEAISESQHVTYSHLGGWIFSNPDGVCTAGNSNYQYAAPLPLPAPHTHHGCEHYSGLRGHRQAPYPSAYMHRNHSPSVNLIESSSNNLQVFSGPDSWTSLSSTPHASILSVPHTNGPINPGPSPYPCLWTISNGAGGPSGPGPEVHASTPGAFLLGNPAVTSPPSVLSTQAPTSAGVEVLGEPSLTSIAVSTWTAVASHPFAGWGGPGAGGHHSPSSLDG
The experiment in a line: pull-down; GST pulldown with purified GST-TPIT or GST and purified His-STUB1; as previously described (ref. 21); both purified.

Another assay concerns the target T5, Flag-TPIT (UniProt O60806).
T5 sequence: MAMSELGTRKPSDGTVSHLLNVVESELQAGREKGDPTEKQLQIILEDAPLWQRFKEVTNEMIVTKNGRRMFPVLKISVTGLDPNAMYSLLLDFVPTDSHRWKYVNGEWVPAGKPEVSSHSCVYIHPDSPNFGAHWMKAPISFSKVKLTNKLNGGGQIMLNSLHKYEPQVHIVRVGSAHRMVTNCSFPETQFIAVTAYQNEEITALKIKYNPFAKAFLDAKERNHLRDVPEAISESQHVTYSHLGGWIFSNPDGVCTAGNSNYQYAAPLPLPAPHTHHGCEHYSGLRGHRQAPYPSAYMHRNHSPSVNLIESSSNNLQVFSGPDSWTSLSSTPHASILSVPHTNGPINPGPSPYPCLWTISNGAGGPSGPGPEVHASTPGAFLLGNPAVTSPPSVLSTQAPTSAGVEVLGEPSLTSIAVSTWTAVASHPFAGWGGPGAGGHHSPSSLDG
The experiment in a line: co-IP; exogenous ('external') Co-IP of Flag-TPIT with candidate ubiquitin ligases, Myc-tagged STUB1 or its truncated mutants; Triton X-100 lysis buffer, rProtein A/G beads, immunoblot; also with Irbesartan, Bosentan or Lumiracoxib (interaction enhanced).

For the molecule “Lgbit-STUB1 (from UniProt Q9UNE7 1-303) (enzyme)”, the binding entry with Smbit-TPIT [1] and in the assay with Smbit-TPIT [2] was “binds” throughout.
For the molecule “STUB1, endogenous in AtT-20 cells (from UniProt Q9WUD1 1-304) (enzyme)”, the binding result in assay [3] is “binds”.
As for “STIP1 Homology and U-Box Containing Protein 1 (STUB1), endogenous, human cells (from UniProt Q9UNE7 1-303) (enzyme)”, the binding result in assay [4] is recorded as “binds”.
As to “His-STUB1 (from UniProt Q9UNE7 1-303) (enzyme)”, the binding result in assay [5] is given as “binds”.
As for “Tripartite motif-containing protein 28 (TRIM28), Co-IP verification (from UniProt Q13263 1-835) (enzyme)”, the binding entry with Flag-TPIT is “binds”.
Same read-out and setting: in the case of “Myc-STUB1 (wild-type) (from UniProt Q9UNE7 1-303) (enzyme)” it was “binds”.

B1: PLRG1, Co-IP verification (protein, UniProt O43660 1-514)
chain: MVEEVQKHSVHTLVFRSLKRTHDMFVADNGKPVPLDEESHKRKMAIKLRNEYGPVLHMPTSKENLKEKGPQNATDSYVHKQYPANQGQEVEYFVAGTHPYPPGPGVALTADTKIQRMPSESAAQSLAVALPLQTKADANRTAPSGSEYRHPGASDRPQPTAMNSIVMETGNTKNSALMAKKAPTMPKPQWHPPWKLYRVISGHLGWVRCIAVEPGNQWFVTGSADRTIKIWDLASGKLKLSLTGHISTVRGVIVSTRSPYLFSCGEDKQVKCWDLEYNKVIRHYHGHLSAVYGLDLHPTIDVLVTCSRDSTARIWDVRTKASVHTLSGHTNAVATVRCQAAEPQIITGSHDTTIRLWDLVAGKTRVTLTNHKKSVRAVVLHPRHYTFASGSPDNIKQWKFPDGSFIQNLSGHNAIINTLTVNSDGVLVSGADNGTMHLWDWRTGYNFQRVHAAVQPGSLDSESGIFACAFDQSESRLLTAEADKTIKVYREDDTATEETHPVSWKPEIIKRKRF
In the case of B1, the binding entry with Flag-TPIT is “binds”.

The values above are taken from article PMC12382147.
